Source: the NIST ThermoML archive (doi:10.1021/je1005483)

How the values were obtained:
[1] = molar heat capacity at constant pressure; conditions: 298.15 K; 101.3 kPa; Liquid; Flow calorimetry
[2] = molar heat capacity at constant pressure; xn = mol fraction of the nth substance listed; conditions: 298.15 K, 101.3 kPa, Liquid, Flow calorimetry

CC(=O)N(C)C [N,N-dimethylethanamide]
Conditions | molar heat capacity at constant pressure [J/K/mol]
[1] | 175.49

CC(=O)N(C)C [N,N-dimethylethanamide] + CC#N
[2]
Conditions | molar heat capacity at constant pressure [J/K/mol]
x1 = 0.03032 | 94.92
x1 = 0.05087 | 96.66
x1 = 0.08015 | 99.14
x1 = 0.1018 | 100.97
x1 = 0.1299 | 103.36
x1 = 0.1504 | 105.1
x1 = 0.1712 | 106.87
x1 = 0.2014 | 109.43
x1 = 0.2569 | 114.15
x1 = 0.3023 | 118.01
x1 = 0.3514 | 122.17
x1 = 0.4024 | 126.48
x1 = 0.501 | 134.78
x1 = 0.5509 | 138.97
x1 = 0.5996 | 143.03
x1 = 0.6588 | 147.96
x1 = 0.7505 | 155.56
x1 = 0.8497 | 163.68
x1 = 0.9004 | 167.77
x1 = 0.9286 | 170
x1 = 0.9506 | 171.73
x1 = 1 | 175.49
